Our source for the NP40-soluble protein abundance values is the supplement of paper PMC6411743.

Chains of the proteins cited; added tags and fusions are not shown. Lines headed by an entry give the natural chain unless they say otherwise; changes in a name come on top.
UniProt Q86UK7: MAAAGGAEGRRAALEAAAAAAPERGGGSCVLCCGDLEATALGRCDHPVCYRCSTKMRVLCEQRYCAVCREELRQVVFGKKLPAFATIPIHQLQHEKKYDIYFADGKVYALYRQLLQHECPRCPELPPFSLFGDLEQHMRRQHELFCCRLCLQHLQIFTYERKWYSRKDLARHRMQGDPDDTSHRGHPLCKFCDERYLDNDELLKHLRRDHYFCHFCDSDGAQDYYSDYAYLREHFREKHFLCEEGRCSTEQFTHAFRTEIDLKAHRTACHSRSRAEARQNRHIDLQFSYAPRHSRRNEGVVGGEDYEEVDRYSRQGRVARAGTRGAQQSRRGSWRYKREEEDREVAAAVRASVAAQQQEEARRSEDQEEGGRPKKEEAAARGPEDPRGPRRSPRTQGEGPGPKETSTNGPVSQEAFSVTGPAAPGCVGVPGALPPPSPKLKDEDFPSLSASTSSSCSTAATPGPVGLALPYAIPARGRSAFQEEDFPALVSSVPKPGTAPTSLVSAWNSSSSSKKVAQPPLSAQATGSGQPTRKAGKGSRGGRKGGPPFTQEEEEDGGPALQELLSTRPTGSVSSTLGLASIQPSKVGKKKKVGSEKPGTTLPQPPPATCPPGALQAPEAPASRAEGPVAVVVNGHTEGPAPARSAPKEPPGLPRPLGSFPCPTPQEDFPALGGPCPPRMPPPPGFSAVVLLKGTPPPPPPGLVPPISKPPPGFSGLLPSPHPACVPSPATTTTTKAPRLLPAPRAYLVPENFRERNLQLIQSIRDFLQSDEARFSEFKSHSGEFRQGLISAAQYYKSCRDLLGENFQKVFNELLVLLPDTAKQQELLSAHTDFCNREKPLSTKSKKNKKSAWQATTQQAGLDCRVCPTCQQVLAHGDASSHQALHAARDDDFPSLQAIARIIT
UniProt Q7Z2Z2: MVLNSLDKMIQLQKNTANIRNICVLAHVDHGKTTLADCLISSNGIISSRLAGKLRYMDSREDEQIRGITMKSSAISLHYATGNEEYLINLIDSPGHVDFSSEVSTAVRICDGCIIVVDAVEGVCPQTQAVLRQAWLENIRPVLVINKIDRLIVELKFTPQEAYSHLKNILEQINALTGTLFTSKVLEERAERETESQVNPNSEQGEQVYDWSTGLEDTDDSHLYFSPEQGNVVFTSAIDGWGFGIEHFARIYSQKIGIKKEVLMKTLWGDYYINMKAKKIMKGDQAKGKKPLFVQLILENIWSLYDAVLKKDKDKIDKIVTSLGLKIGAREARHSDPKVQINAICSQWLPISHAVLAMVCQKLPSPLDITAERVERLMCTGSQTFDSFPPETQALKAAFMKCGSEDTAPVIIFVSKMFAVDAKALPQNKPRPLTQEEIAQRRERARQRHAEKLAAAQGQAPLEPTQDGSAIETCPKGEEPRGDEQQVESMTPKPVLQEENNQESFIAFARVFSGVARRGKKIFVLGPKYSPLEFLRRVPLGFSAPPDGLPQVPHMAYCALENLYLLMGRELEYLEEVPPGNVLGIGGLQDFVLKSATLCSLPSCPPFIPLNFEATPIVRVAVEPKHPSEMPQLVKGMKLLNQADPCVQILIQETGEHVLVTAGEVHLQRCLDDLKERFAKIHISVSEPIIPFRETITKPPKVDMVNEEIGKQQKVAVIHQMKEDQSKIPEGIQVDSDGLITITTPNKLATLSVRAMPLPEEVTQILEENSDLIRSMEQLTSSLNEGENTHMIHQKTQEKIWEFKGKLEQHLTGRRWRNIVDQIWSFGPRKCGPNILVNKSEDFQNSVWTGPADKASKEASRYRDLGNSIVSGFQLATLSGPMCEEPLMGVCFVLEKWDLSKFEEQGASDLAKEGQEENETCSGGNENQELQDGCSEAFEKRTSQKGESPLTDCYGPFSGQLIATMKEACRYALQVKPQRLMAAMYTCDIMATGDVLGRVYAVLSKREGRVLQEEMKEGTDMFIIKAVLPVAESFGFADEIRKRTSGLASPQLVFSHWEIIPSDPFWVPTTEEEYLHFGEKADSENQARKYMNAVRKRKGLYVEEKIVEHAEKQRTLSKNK
UniProt Q7L1V2: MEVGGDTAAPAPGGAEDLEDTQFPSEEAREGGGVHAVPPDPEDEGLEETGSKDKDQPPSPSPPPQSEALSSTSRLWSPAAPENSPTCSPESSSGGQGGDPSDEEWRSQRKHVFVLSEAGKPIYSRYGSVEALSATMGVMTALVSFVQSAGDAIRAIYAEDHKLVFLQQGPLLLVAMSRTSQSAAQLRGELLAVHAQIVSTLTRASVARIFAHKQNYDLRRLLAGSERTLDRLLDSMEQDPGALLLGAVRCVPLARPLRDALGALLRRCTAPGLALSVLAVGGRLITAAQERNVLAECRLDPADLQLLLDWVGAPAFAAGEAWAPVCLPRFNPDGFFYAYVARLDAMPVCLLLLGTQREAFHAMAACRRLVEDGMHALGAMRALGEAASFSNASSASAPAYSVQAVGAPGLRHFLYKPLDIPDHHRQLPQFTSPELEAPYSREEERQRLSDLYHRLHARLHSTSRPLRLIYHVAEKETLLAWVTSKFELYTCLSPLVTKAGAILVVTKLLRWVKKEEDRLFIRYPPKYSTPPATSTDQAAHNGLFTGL
UniProt Q6ZT12: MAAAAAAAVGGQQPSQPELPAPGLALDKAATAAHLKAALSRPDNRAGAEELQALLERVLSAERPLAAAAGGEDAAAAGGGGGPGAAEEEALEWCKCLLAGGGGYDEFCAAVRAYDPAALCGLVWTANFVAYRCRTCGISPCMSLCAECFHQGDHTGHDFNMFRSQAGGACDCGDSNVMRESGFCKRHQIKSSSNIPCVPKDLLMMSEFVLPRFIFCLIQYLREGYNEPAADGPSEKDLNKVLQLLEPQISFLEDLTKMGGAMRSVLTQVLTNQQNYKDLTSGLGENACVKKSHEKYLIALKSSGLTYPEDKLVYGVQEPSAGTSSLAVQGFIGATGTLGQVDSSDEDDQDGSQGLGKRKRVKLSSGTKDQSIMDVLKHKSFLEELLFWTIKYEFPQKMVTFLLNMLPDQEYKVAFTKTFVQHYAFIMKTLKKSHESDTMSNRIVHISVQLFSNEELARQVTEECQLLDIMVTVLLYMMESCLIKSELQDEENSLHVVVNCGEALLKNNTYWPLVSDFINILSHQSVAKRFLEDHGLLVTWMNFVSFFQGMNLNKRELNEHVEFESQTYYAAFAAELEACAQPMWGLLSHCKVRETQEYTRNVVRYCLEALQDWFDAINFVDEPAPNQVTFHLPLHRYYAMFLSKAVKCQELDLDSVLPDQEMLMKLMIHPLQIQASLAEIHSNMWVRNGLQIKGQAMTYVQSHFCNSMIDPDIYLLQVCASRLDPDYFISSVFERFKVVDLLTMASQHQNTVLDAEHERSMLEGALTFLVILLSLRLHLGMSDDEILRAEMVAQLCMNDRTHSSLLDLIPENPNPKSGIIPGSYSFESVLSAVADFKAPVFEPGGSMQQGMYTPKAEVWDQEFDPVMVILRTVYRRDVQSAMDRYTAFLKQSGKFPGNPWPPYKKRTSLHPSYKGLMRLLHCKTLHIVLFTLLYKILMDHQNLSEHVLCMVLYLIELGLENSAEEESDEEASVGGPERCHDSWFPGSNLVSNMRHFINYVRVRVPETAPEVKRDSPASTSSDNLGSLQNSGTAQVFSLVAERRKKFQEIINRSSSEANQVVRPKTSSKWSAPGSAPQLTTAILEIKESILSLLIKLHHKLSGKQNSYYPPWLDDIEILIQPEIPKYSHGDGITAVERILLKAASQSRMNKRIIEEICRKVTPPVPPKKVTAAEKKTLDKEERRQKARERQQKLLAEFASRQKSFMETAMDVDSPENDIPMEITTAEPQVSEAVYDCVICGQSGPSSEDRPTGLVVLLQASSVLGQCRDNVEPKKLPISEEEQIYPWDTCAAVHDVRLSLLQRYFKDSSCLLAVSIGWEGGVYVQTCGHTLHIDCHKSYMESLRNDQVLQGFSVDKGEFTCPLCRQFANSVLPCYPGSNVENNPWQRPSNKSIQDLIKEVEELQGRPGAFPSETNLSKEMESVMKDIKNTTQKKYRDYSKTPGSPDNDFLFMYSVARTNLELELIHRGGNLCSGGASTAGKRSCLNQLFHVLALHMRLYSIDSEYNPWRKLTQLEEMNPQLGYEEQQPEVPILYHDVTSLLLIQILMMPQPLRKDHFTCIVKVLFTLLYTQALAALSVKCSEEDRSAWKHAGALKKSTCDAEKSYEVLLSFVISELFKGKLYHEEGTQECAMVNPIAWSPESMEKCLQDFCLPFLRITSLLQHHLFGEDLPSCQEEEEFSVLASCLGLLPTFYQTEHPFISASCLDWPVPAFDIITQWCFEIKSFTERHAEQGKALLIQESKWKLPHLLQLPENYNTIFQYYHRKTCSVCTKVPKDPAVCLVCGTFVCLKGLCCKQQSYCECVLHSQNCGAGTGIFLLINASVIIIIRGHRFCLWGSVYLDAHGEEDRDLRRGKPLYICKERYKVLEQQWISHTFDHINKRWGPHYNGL
UniProt Q6ZVK8: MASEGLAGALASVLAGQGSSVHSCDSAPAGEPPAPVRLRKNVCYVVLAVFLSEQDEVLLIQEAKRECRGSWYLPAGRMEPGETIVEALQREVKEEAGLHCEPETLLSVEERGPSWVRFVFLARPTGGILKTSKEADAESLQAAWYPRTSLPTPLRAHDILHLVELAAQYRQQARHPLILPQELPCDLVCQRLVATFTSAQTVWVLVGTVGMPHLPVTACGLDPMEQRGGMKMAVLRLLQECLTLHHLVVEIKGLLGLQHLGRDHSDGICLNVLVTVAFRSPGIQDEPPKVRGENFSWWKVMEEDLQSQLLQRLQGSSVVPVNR
UniProt Q7Z4H3: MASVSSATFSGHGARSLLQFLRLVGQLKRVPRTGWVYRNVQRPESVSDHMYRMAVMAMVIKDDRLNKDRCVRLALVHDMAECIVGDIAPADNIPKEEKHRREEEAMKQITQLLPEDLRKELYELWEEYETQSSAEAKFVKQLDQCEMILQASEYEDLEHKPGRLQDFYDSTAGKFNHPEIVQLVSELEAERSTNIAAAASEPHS
UniProt Q7L8J4: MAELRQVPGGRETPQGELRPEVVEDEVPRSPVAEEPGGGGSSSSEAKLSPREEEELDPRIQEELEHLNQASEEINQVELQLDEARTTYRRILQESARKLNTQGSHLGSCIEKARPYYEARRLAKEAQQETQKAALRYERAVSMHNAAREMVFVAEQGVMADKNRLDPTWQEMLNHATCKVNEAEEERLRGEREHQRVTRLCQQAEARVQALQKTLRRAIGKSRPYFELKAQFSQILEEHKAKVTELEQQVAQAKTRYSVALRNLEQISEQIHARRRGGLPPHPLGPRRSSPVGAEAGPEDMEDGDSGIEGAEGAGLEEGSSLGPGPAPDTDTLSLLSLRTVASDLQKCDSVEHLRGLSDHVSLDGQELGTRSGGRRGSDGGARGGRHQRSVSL
UniProt Q71RG4: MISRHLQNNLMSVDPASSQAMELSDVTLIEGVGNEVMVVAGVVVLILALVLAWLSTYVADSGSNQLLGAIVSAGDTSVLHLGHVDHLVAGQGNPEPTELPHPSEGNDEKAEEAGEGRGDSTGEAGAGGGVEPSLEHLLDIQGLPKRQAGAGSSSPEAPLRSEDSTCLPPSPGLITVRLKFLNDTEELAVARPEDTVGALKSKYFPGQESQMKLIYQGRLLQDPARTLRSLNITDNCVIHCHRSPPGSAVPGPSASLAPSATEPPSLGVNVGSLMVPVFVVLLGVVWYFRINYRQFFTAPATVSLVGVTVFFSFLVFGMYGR
UniProt Q7Z7L7: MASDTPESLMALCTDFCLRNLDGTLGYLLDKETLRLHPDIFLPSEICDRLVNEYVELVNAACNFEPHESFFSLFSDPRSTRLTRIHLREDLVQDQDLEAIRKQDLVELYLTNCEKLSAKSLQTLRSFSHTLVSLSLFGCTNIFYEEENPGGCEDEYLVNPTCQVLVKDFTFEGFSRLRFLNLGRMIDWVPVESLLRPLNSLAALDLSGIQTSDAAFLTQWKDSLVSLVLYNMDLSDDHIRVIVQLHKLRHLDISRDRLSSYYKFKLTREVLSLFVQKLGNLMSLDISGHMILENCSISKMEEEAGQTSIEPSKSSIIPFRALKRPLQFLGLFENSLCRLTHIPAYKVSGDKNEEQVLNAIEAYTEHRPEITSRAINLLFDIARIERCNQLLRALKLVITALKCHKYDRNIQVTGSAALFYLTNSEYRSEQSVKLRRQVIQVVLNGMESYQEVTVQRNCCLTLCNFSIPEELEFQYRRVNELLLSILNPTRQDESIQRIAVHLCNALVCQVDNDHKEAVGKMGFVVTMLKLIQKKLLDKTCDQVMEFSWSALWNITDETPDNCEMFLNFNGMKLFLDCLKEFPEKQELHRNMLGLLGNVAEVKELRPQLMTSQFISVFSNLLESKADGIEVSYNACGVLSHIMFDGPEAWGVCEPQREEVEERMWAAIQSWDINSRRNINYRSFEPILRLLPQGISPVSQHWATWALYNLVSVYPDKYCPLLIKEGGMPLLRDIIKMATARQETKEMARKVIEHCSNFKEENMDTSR

± gives the standard deviation of the averaged measurements. This is a selection; strong and weak results do not stand in their true shares.

Compound in one experiment: Nc1ncnc2c1ncn2[C@@H]1O[C@H](COP(=O)(O)OP(=O)(O)OP(=O)(O)O)[C@@H](O)[C@H]1O [adenosine triphosphate]
Description: NP40-soluble protein abundance relative to vehicle (solubility fold change) (ratio); higher = more soluble protein in presence of ATP. The following applies: concentration: 8mM. The method, boiled down: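 In three independent experiments, Jurkat crude lysate made by Dounce homogenisation was treated for 10 min at room temperature and then 3 min at 37 °C with eight concentrations ranging from 0.1 to 10 mM. It was then solubilised with 0.8% NP40 plus benzonase for 60 min at 4 °C and ultracentrifuged. The supernatant was TMT-labelled for LC-MS/MS, and each value is the fold change against the detergent-processed vehicle for the same replicate, using vsn-normalised intensities.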
Consider UniProt Q86X76-2, for which the NP40-soluble protein abundance worked out at 1 ± 0.058.

Take UniProt Q7KZN9 and related entries: the NP40-soluble protein abundance is 1.04 ± 0.17. Still for that read-out and setting: next, UniProt Q86UK7 and related entries: 1.11 ± 0.023. Same read-out and setting: next, UniProt Q7Z2Z2: 0.989 ± 0.032; TTC33 (UniProt Q6PID6): 0.932 ± 0.017; UniProt Q6PI26 and related entries: 1.04 ± 0.037. Regarding UniProt Q7L1Q6, the NP40-soluble protein abundance was 0.905 ± 0.044.

On to MON1B (UniProt Q7L1V2), for which the NP40-soluble protein abundance was 0.89 ± 0.19. For UniProt Q6ZT12 and related entries, the NP40-soluble protein abundance came out at 0.999 ± 0.057.

Still in this experiment, the particulars now being: concentration: 10mM.
CCDC25 (UniProt Q86WR0): the NP40-soluble protein abundance was determined as 0.939 ± 0.025.

Regarding UniProt Q7Z6K3 and related entries, the NP40-soluble protein abundance amounted to 0.947 ± 0.05. With NUDT18 (UniProt Q6ZVK8), the NP40-soluble protein abundance amounted to 1.03 ± 0.086. For HDDC2 (UniProt Q7Z4H3), the NP40-soluble protein abundance stood at 0.816 ± 0.17. For BLOC1S2 (UniProt Q6QNY1), the NP40-soluble protein abundance was 0.988 ± 0.029. The same measure, in the same setting: next, GPR180 (UniProt Q86V85): 0.935 ± 0.045.

Consider UniProt Q7L8J4 and related entries, for which the NP40-soluble protein abundance worked out at 0.909 ± 0.045. As for UniProt Q7Z7H8 and related entries, the NP40-soluble protein abundance amounted to 0.939 ± 0.11.

In the case of UniProt Q7L5D6, the NP40-soluble protein abundance amounted to 0.93 ± 0.033.

Regarding UniProt Q86VP1-2|B8ZZD4, the NP40-soluble protein abundance was 0.9801 ± 0.003. Same read-out and setting: next, UniProt Q71RG4 and related entries: 0.883 ± 0.064; UniProt Q7Z3K3 and related entries: 1.21 ± 0.042. Still for that read-out and setting: next, HS2ST1 (UniProt Q7LGA3): 1.31 ± 0.025.

For the target UniProt Q86UA6 and related entries, the NP40-soluble protein abundance is 0.927 ± 0.056. Still for that read-out and setting: next, UniProt Q7Z7L7: 1.04 ± 0.07.

In the case of UniProt Q7Z2W9 and related entries, the NP40-soluble protein abundance worked out at 0.929 ± 0.27. The same measure, in the same setting: next, HOMER1 (UniProt Q86YM7): 1.03 ± 0.07; UniProt Q6UWP7 and related entries: 0.969 ± 0.069; BLOC1S3 (UniProt Q6QNY0): 0.894 ± 0.036. The same measure, in the same setting: next, ATAD2 (UniProt Q6PL18): 1.31 ± 0.19; TMED4 (UniProt Q7Z7H5): 0.946 ± 0.051; UniProt Q6PIF6: 1.14 ± 0.072. With UniProt Q7Z460-4, the NP40-soluble protein abundance was 1.1 ± 0.066. Same read-out and setting: next, “UniProt Q6PJT7-3|Q6PJT7-5|Q6PJT7-9|Q6PJT7”: 1.431 ± 0.0067. Consider DYM (UniProt Q7RTS9), for which the NP40-soluble protein abundance was 0.971 ± 0.072. Regarding TRAPPC6B (UniProt Q86SZ2), the NP40-soluble protein abundance was determined as 0.968 ± 0.053. Consider UniProt Q86UW6 and related entries, for which the NP40-soluble protein abundance was found to be 1.142 ± 0.0069. As to UniProt Q86X76-2, the NP40-soluble protein abundance was 0.991 ± 0.045. For the target UniProt Q7KZN9 and related entries, the NP40-soluble protein abundance stood at 0.971 ± 0.12. Same read-out and setting: next, UniProt Q86UK7 and related entries: 1.16 ± 0.045; UniProt Q7Z2Z2: 0.972 ± 0.022.

With TTC33 (UniProt Q6PID6), the NP40-soluble protein abundance worked out at 0.92 ± 0.019. Still for that read-out and setting: next, UniProt Q6PI26 and related entries: 1.08 ± 0.087; UniProt Q7L1Q6: 0.908 ± 0.042. Still for that read-out and setting: next, MON1B (UniProt Q7L1V2): 1.01 ± 0.07. Consider UniProt Q6ZT12 and related entries, for which the NP40-soluble protein abundance is 0.96835 ± 0.0009.
